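Human melanoma cell lines in 1,536-well plates were treated with a pair of drugs for 72 h, then fixed, stained and imaged. The read-out is cell count (nuclei) in % of the DMSO control; lower values mean stronger growth inhibition or killing. Every drug was used at one fixed concentration, the lower of two screened (a fifth of the higher). The file gives one value for each pair and line, without errors, so small differences may be noise.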
Only some of the drugs and lines screened are listed, without regard to their results.
An entry leaves out what has no value listed here.
A dash means that no value is listed here.

All values are for the listed drug together with MK-2206 (0.4 µM): NC1(c2ccc(-c3nc4ccn5c(=O)[nH]nc5c4cc3-c3ccccc3)cc2)CCC1

Partner	MEL-HO	A2058	COLO 792	A375	COLO 829	C32	IST-MEL1	LB2518-MEL
Nc1nc(F)nc2c1ncn2[C@@H]1O[C@H](CO)[C@@H](O)[C@@H]1O at 0.2 µM	73.8	89.6	69.9	16.3	98.2	99.9	84.7	-
CN(c1ncccc1CNc1nc(Nc2ccc3c(c2)CC(=O)N3)ncc1C(F)(F)F)S(C)(=O)=O at 0.08 µM	77.1	78.1	63.6	87.5	79.0	76.9	82.0	85.9
CC1(C)CCC(c2ccc(Cl)cc2)=C(CN2CCN(c3ccc(C(=O)NS(=O)(=O)c4ccc(N[C@H](CCN5CCOCC5)CSc5ccccc5)c(S(=O)(=O)C(F)(F)F)c4)cc3)CC2)C1 at 0.4 µM	65.3	-	34.0	-	113	52.1	79.4	91.4
Cn1c(Nc2ccc(C(F)(F)F)cc2)nc2cc(Oc3ccnc(-c4ncc(C(F)(F)F)[nH]4)c3)ccc21 at 0.08 µM	80.1	76.4	32.7	53.4	108	71.5	89.2	56.5
Nc1ccn([C@@H]2O[C@H](CO)[C@@H](O)C2(F)F)c(=O)n1 at 0.0004 µM	74.9	83.1	54.2	86.8	82.1	94.2	64.5	87.8
COc1cc([C@@H]2c3cc4c(cc3[C@@H](O[C@@H]3O[C@@H]5CO[C@@H](C)O[C@H]5[C@H](O)[C@H]3O)[C@H]3COC(=O)[C@H]23)OCO4)cc(OC)c1O at 0.02 µM	75.2	78.9	69.0	91.8	84.1	91.8	102	75.8
CO[C@H]1C[C@@H]2CC[C@@H](C)[C@@](O)(O2)C(=O)C(=O)N2CCCC[C@H]2C(=O)O[C@H]([C@H](C)C[C@@H]2CC[C@@H](OCCO)[C@H](OC)C2)CC(=O)[C@H](C)/C=C(\C)[C@@H](O)[C@@H](OC)C(=O)[C@H](C)C[C@H](C)/C=C/C=C/C=C/1C at 0.02 µM	52.4	64.5	30.5	66.8	76.8	92.7	78.1	57.8
CC(=O)c1c(C)c2cnc(Nc3ccc(N4CCNCC4)cn3)nc2n(C2CCCC2)c1=O at 0.04 µM	73.3	73.1	40.0	44.4	80.1	62.8	74.6	69.4
Cn1nnc2c(C(N)=O)ncn2c1=O at 2 µM	89.7	75.6	68.0	86.8	91.6	118	96.2	99.1
Cn1cnc2c(F)c(Nc3ccc(Br)cc3Cl)c(C(=O)NOCCO)cc21 at 0.015 µM	78.0	103	60.5	76.4	107	82.7	81.6	53.0
CS(=O)(=O)CCNCc1ccc(-c2ccc3ncnc(Nc4ccc(OCc5cccc(F)c5)c(Cl)c4)c3c2)o1 at 0.8 µM	77.0	82.8	50.0	95.2	96.9	93.7	101	90.9
COCC[n+]1c2c(n(Cc3cnccn3)c1C)C(=O)c1ccccc1C2=O at 0.0004 µM	77.5	63.8	68.4	56.2	86.7	87.2	84.5	70.5
O=C(Nc1cc(C(F)(F)F)cc(C(F)(F)F)c1)c1cc(Cl)ccc1O at 0.016 µM	95.7	94.7	72.1	84.0	94.4	87.8	93.1	93.9
C[C@@H](N)c1ccc(C(=O)Nc2ccnc3[nH]ccc23)cc1 at 0.4 µM	70.4	75.9	76.0	79.2	80.8	74.4	91.2	108
Cc1ccc(Nc2nccc(N(C)c3ccc4c(C)n(C)nc4c3)n2)cc1S(N)(=O)=O at 0.4 µM	88.0	90.5	82.0	92.5	89.9	103	106	115
C#Cc1cccc(Nc2ncnc3cc(OCCOC)c(OCCOC)cc23)c1 at 0.8 µM	89.4	84.4	58.0	74.2	101	97.6	93.7	87.4
CCCCCCCCCCCCCCCCCCOP(=O)([O-])OC1CC[N+](C)(C)CC1 at 0.4 µM	64.9	91.7	65.5	84.5	78.2	94.2	96.5	101
CC(C)C[C@H](NC(=O)[C@H](Cc1ccccc1)NC(=O)c1cnccn1)B(O)O at 0.001 µM	82.0	93.2	71.0	101	77.3	87.1	93.7	71.7
N.N.[Cl][Pt][Cl] at 1.6 µM	91.2	94.8	85.4	84.2	95.0	89.2	86.3	93.5

Repeated from the top, 2 entries:

{"partner": "Nc1nc(F)nc2c1ncn2[C@@H]1O[C@H](CO)[C@@H](O)[C@@H]1O at 0.2 µM", "MEL-HO": 73.8, "A2058": 89.6, "COLO 792": 69.9, "A375": 16.3, "COLO 829": 98.2, "C32": 99.9, "IST-MEL1": 84.7}
{"partner": "CN(c1ncccc1CNc1nc(Nc2ccc3c(c2)CC(=O)N3)ncc1C(F)(F)F)S(C)(=O)=O at 0.08 µM", "MEL-HO": 77.1, "A2058": 78.1, "COLO 792": 63.6, "A375": 87.5, "COLO 829": 79.0, "C32": 76.9, "IST-MEL1": 82.0, "LB2518-MEL": 85.9}

From a melanoma drug combination screen (doi:10.1371/journal.pone.0140310); values rounded.